{"source": "the supplement of paper PMC3493320", "tested_on": "NCI-H295R", "assay": "IC50 (antiproliferative, ATP content)", "conditions": "48 h", "in_short": "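In 1536-well plates, 1500 adrenocortical carcinoma cells per well were grown overnight in serum-free, ITS-supplemented DMEM before compounds were pin-transferred at 8 final concentrations (0.6 nM to 46 µM). After 48 h at 37 °C and 5% CO2, CellTiter-Glo luminescence was read following 20 min at room temperature and normalised to vehicle and positive-control wells. IC50 values came from logistic curve fits, with compounds lacking any concentration response listed as above the top dose.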", "data": [{"smiles": "Br.CN1[C@@H]2CC[C@H]1C[C@@H](OC(=O)C(O)c1ccccc1)C2", "note": "(stereo partly specified)", "values": [{"measurement": "IC50", "value": "> 46", "unit": "µM"}]}]}
